# ± gives the standard deviation of the averaged measurements. This is a selection; strong and weak results do not stand in their true shares.
# By UniProt entry, the sequences of proteins in these tests, tags left out. Where a name states a change or a piece, a line headed by the entry shows the natural chain unless it says otherwise.
# UniProt Q9Y252: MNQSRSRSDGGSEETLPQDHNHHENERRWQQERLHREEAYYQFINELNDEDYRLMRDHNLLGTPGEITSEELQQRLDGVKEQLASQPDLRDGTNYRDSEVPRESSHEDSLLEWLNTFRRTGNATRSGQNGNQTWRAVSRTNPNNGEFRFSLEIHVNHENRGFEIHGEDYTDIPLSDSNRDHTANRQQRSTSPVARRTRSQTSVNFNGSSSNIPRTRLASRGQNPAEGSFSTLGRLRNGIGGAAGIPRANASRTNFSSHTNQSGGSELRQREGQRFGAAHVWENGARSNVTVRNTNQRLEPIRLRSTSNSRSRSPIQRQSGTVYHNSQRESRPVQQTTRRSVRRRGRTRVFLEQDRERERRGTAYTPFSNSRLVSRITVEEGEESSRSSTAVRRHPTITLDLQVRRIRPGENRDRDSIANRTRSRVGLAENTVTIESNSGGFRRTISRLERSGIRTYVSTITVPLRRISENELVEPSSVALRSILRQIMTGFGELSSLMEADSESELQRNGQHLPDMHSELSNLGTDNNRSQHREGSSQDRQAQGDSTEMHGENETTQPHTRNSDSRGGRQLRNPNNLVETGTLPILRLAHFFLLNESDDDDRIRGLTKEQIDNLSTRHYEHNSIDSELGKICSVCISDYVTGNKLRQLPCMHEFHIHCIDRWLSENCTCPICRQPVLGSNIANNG
# UniProt Q9ULJ3: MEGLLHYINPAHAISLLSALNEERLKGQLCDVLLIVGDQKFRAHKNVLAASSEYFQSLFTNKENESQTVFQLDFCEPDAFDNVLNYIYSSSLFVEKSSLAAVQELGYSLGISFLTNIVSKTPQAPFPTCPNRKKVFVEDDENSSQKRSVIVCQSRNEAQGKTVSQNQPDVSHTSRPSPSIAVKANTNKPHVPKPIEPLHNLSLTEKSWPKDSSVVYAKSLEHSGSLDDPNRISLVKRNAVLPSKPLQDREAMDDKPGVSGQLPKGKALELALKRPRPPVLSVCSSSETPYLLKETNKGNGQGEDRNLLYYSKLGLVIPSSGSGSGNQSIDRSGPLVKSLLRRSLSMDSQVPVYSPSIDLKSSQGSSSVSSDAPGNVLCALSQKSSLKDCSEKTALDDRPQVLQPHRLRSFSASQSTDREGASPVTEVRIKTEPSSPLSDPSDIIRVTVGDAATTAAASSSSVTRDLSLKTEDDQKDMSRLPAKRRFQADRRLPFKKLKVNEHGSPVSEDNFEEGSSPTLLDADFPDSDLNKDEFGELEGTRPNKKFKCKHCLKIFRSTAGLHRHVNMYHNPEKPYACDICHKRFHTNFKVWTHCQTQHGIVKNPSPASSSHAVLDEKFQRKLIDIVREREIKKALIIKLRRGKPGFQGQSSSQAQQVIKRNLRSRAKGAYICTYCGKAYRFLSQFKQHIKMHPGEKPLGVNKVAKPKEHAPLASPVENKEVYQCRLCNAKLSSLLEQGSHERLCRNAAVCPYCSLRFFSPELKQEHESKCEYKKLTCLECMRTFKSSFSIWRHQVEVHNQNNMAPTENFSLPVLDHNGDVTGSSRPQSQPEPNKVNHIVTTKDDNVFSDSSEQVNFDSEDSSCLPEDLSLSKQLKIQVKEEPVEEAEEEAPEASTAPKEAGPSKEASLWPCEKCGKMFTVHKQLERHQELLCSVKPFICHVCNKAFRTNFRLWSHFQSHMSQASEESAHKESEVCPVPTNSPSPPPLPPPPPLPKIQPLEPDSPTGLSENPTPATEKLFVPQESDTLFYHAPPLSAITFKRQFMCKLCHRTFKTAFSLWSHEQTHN
# UniProt Q9UDY4: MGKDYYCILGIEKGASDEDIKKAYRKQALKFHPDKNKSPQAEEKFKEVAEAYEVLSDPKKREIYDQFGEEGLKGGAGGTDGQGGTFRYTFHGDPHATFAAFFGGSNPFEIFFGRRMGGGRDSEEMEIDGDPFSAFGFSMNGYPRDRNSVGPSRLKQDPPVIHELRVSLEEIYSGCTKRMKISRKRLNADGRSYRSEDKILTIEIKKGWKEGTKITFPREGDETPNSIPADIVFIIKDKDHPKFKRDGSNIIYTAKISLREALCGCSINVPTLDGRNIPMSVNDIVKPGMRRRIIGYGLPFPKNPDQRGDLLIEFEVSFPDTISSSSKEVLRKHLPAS
# UniProt Q9Y277: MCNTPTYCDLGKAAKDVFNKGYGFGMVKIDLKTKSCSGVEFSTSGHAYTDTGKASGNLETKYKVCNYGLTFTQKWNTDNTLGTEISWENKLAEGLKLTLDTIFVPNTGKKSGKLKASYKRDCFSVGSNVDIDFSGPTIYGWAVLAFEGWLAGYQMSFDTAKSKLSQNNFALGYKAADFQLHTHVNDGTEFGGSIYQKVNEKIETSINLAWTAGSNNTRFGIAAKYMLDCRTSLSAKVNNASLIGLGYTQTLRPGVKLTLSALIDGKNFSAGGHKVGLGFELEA
# UniProt Q9UK76: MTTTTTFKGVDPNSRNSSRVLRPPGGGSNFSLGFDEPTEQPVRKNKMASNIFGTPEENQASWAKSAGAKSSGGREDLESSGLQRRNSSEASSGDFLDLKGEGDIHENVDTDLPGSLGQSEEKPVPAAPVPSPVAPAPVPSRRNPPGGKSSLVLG
# UniProt Q9UQR1: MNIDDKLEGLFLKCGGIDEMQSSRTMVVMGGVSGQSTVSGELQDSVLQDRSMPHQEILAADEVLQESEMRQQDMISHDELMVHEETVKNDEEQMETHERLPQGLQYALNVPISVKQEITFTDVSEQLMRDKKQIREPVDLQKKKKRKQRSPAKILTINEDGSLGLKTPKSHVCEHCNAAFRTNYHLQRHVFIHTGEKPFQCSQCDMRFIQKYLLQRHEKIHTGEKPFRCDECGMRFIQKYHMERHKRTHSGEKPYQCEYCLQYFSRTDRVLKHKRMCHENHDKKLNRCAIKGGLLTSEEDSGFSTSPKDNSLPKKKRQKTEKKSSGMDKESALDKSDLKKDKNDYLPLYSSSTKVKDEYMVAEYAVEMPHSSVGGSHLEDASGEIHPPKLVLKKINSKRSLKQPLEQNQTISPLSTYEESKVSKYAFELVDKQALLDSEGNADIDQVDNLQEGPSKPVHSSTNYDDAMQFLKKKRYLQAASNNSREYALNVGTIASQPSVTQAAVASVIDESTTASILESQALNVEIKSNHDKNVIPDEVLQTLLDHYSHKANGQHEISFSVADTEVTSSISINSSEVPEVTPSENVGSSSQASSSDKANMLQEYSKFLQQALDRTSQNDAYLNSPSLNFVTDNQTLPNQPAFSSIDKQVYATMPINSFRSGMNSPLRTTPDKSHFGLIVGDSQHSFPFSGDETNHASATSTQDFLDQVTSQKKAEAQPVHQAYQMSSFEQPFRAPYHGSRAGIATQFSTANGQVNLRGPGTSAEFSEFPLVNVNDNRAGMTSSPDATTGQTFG
# UniProt Q9UL26: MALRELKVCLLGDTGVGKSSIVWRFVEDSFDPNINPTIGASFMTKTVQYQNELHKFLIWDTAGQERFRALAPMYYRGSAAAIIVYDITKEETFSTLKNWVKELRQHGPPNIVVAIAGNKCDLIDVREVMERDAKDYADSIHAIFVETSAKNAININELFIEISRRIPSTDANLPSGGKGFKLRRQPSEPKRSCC
# UniProt Q9UFW8: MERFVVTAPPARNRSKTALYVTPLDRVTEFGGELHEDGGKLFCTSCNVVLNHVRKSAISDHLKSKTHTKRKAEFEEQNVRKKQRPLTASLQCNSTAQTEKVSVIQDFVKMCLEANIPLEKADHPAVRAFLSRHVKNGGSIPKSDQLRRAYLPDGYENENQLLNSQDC
# UniProt Q9ULR0: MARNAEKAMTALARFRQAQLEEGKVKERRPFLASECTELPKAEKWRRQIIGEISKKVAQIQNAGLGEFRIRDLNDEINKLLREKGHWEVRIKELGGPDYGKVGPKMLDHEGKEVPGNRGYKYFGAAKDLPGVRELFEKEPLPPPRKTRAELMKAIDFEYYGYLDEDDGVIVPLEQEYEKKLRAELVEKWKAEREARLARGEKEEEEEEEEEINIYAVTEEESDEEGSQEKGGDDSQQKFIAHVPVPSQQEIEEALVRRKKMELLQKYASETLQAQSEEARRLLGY
# UniProt Q9UBQ6: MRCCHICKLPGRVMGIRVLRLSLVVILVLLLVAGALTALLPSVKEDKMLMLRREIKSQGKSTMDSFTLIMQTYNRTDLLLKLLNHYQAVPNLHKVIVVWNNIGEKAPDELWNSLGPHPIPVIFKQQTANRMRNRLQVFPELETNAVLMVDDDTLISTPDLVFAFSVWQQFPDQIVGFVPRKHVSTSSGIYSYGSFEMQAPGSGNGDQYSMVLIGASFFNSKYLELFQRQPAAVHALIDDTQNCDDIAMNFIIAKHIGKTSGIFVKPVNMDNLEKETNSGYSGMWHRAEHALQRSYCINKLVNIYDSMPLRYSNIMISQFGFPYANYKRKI
# UniProt Q9Y250: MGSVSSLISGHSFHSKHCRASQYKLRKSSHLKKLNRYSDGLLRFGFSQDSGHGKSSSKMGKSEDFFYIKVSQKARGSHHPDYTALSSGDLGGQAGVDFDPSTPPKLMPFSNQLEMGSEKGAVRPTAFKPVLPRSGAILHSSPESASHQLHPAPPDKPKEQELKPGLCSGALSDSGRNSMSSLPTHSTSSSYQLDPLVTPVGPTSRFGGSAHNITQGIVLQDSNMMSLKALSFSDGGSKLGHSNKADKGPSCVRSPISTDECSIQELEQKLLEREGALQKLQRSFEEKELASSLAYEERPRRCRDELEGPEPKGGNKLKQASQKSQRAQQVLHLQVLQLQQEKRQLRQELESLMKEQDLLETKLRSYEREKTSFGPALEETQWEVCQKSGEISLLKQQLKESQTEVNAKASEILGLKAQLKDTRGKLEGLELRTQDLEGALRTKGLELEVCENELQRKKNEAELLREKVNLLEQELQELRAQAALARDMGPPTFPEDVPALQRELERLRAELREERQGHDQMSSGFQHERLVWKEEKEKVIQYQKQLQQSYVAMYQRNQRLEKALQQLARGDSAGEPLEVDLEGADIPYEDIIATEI
# UniProt Q9UKX7: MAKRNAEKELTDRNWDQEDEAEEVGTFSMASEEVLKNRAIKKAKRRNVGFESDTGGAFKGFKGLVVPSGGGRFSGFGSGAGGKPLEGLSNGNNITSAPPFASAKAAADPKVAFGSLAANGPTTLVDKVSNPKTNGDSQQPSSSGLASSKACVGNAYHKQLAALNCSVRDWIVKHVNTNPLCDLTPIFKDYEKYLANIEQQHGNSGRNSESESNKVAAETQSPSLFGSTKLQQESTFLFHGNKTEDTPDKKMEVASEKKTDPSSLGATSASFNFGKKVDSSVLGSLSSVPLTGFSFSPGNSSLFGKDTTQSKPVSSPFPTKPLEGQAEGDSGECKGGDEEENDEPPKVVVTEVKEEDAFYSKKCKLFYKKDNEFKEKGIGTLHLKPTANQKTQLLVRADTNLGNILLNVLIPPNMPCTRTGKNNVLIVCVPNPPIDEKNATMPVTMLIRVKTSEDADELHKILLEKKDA
# UniProt Q9UDR5: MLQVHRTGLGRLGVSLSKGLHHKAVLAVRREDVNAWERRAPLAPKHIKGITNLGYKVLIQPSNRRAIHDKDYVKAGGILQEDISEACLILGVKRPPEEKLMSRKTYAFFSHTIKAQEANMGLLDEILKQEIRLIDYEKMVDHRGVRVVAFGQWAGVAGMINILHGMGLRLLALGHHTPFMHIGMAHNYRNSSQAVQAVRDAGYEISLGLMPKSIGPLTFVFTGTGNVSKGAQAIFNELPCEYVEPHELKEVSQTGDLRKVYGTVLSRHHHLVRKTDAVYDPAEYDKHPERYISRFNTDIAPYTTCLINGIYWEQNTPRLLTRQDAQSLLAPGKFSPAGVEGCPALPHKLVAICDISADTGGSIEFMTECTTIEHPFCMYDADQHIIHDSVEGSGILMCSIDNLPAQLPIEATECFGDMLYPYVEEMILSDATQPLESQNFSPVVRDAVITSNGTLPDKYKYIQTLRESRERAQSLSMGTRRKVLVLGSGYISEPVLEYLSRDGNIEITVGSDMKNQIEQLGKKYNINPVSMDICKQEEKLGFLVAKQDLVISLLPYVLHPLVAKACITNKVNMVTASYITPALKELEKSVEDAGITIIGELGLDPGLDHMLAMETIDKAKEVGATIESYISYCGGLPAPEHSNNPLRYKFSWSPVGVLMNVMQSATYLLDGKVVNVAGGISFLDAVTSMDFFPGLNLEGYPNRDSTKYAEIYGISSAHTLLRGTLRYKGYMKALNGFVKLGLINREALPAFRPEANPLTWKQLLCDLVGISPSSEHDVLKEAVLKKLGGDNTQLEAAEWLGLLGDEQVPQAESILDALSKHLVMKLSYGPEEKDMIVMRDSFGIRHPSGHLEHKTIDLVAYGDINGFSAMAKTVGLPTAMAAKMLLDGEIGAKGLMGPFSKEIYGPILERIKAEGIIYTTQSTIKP
# UniProt Q9UEE9, whole entry: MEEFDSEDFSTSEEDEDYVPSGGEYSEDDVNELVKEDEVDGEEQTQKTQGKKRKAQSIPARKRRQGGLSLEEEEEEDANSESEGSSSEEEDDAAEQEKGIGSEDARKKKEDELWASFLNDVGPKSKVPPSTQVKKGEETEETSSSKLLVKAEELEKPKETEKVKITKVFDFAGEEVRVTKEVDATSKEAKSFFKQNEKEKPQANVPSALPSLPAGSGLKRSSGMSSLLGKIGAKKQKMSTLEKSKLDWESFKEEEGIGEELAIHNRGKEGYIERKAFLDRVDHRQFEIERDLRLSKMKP
# Compound: Nc1ncnc2c1ncn2[C@@H]1O[C@H](COP(=O)(O)OP(=O)(O)OP(=O)(O)O)[C@@H](O)[C@H]1O [adenosine triphosphate]
# Test: NP40-soluble protein abundance relative to vehicle (solubility fold change) (ratio); higher = more soluble protein in presence of ATP
# Details: concentration: 6mM
# In short: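 Jurkat crude lysate prepared with a Dounce homogeniser was treated at eight concentrations spanning 0.1 to 10 mM, 10 min at room temperature then 3 min at 37 °C. Solubilisation with 0.8% NP40 and benzonase and ultracentrifugation preceded TMT labelling of the supernatant for LC-MS/MS. Fold change against the detergent-processed vehicle was determined per replicate from vsn-normalised intensities, across three independent experiments.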
row,Target,NP40-soluble protein abundance
1,GRHPR (UniProt Q9UBQ7),0.914 ± 0.096
2,PLAA (UniProt Q9Y263),0.948 ± 0.075
3,UniProt Q9UGU0 and related entries,1.29 ± 0.087
4,UniProt Q9UI30,1 ± 0.056
5,UniProt Q9Y252,1.13 ± 0.17
6,UniProt Q9UNZ2 and related entries,0.955 ± 0.021
7,UniProt Q9ULJ3,0.939 ± 0.084
8,UniProt Q9UBD5 and related entries,1.05 ± 0.026
9,DNAJB4 (UniProt Q9UDY4),0.824 ± 0.016
10,VDAC3 (UniProt Q9Y277),0.908 ± 0.066
11,UniProt Q9UK76,0.914 ± 0.047
12,USP24 (UniProt Q9UPU5),0.965 ± 0.038
13,UniProt Q9UNL4 and related entries,1.26 ± 0.12
14,HMGXB4 (UniProt Q9UGU5),1.09 ± 0.031
15,ZNF148 (UniProt Q9UQR1),1.04 ± 0.063
16,RAB22A (UniProt Q9UL26),0.896 ± 0.14
17,C19orf53 (UniProt Q9UNZ5),1.16 ± 0.28
18,KMT2B (UniProt Q9UMN6),1.07 ± 0.07
19,ARPP21 (UniProt Q9UBL0),0.972 ± 0.042

row,Target,NP40-soluble protein abundance
1,CGGBP1 (UniProt Q9UFW8),1.1 ± 0.042
2,UniProt Q9ULR0 and related entries,0.961 ± 0.087
3,EXTL2 (UniProt Q9UBQ6),1.01 ± 0.056
4,APPL1 (UniProt Q9UKG1),0.973 ± 0.078
5,UniProt Q9Y250 and related entries,1.04 ± 0.095
6,UniProt Q9UKX7 and related entries,1.15 ± 0.033
7,RUVBL2 (UniProt Q9Y230),1.11 ± 0.041
8,ZNFX1 (UniProt Q9P2E3),1.03 ± 0.014
9,CHORDC1 (UniProt Q9UHD1),0.971 ± 0.036
10,MTMR6 (UniProt Q9Y217),0.941 ± 0.082
11,DPP7 (UniProt Q9UHL4),0.947 ± 0.023
12,SRP68 (UniProt Q9UHB9),1.07 ± 0.018
13,AKAP11 (UniProt Q9UKA4),0.955 ± 0.11
14,NOL7 (UniProt Q9UMY1),1.03 ± 0.032
15,UniProt Q9ULL5-3,1.01 ± 0.068
16,AASS (UniProt Q9UDR5),0.968 ± 0.082
17,CFDP1 (UniProt Q9UEE9),0.948 ± 0.028
18,ZMAT5 (UniProt Q9UDW3),1.39 ± 0.38

# Same assay, conditions: concentration: 8mM
row,Target,NP40-soluble protein abundance
1,GRHPR (UniProt Q9UBQ7),0.972 ± 0.076
2,PLAA (UniProt Q9Y263),0.95 ± 0.016
3,UniProt Q9UGU0 and related entries,1.32 ± 0.067
4,UniProt Q9UI30,1.06 ± 0.067
5,UniProt Q9Y252,1.11 ± 0.063
6,UniProt Q9UNZ2 and related entries,0.922 ± 0.013
7,UniProt Q9ULJ3,0.886 ± 0.053
8,UniProt Q9UBD5 and related entries,1.09 ± 0.058
9,DNAJB4 (UniProt Q9UDY4),0.824 ± 0.023
10,VDAC3 (UniProt Q9Y277),0.906 ± 0.038
11,UniProt Q9UK76,0.817 ± 0.031
12,USP24 (UniProt Q9UPU5),0.999 ± 0.039
13,UniProt Q9UNL4 and related entries,1.23 ± 0.04
14,HMGXB4 (UniProt Q9UGU5),1.08 ± 0.08
15,ZNF148 (UniProt Q9UQR1),0.985 ± 0.04
16,RAB22A (UniProt Q9UL26),0.925 ± 0.048
17,C19orf53 (UniProt Q9UNZ5),1.03 ± 0.23
18,KMT2B (UniProt Q9UMN6),1.02 ± 0.012
19,ARPP21 (UniProt Q9UBL0),0.915 ± 0.024

row,Target,NP40-soluble protein abundance
1,CGGBP1 (UniProt Q9UFW8),1.09 ± 0.014
2,UniProt Q9ULR0 and related entries,0.945 ± 0.066
3,EXTL2 (UniProt Q9UBQ6),1 ± 0.013
4,APPL1 (UniProt Q9UKG1),1.03 ± 0.04
5,UniProt Q9Y250 and related entries,1.08 ± 0.095
6,UniProt Q9UKX7 and related entries,1.09 ± 0.014
7,RUVBL2 (UniProt Q9Y230),1.14 ± 0.013
8,ZNFX1 (UniProt Q9P2E3),1.08 ± 0.043
9,CHORDC1 (UniProt Q9UHD1),0.963 ± 0.071
10,MTMR6 (UniProt Q9Y217),0.987 ± 0.035
11,DPP7 (UniProt Q9UHL4),0.899 ± 0.012
12,SRP68 (UniProt Q9UHB9),1.08 ± 0.02
13,AKAP11 (UniProt Q9UKA4),0.934 ± 0.068
14,NOL7 (UniProt Q9UMY1),0.966 ± 0.043
15,UniProt Q9ULL5-3,1.01 ± 0.04
16,AASS (UniProt Q9UDR5),1.02 ± 0.025
17,CFDP1 (UniProt Q9UEE9),0.839 ± 0.0063
18,ZMAT5 (UniProt Q9UDW3),1.52 ± 0.31
